This is one part of the list. Shown are side measurements of this screen, not its main read-out; they come without a call. Most of these compounds were active or inconclusive in the main read-out, so they are no random draw. Potencies come from curve fits of mixed quality, noted in brackets.
Assay: qHTS Assay to Find Inhibitors of Chronic Active B-Cell Receptor Signaling
Conditions: ABC-DLBCL IkBa-CBG/CBR reporter, luminescence ratio (green luciferase fused to IkBa over red control in TMD8 lymphoma cells), 4 h
In short: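 TMD8 ABC-DLBCL cells carrying doxycycline-inducible green luciferase fused to IkappaBalpha plus unfused red luciferase were exposed to compounds (up to 46 uM) for 4 hrs at 37C. Activity came from the overlap-corrected green/red luminescence ratio.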

[1] = measured here: CBR red luminescence, cell number
[2] = measured here: IkBa-CBG green luminescence

Row | Structure (SMILES) | AC50 [1] | AC50 [2]
1 | Cc1sc(NC(=O)CSc2nnc3scc(-c4ccccc4)n23)c(C#N)c1C | 0.103 µM [falling, full curve, poor fit] | –
2 | COc1ccc(-n2c(Cc3cccn3C)nnc2SCC(=O)Nc2cc(Cl)ccc2OC)cc1 | 29.1 µM [falling, single point] | –
3 | Cc1ccc2c(c1)C(=O)N1[C@H]3c4cc(Cl)ccc4OC[C@@H]3[C@H](c3ccccc3)[C@]1(C)C(=O)N2 | 2.06 µM [falling, full curve] | –
4 | CCn1c(NC(=O)Nc2ccccc2OC)nc2ccccc21 | 12.6 µM [falling, single point] | –
5 | O=C(O)c1ccc(N/N=C/C2=C(N3CCOCC3)C(=C\c3ccccc3)/CC2)cc1 | 2.51 µM [falling, full curve] | –
6 | Cc1ccnc2ccc(-c3nc4ccccc4o3)cc12 | 1 µM [rising, full curve, poor fit] | –
7 | Cc1cc(OCC(=O)NCc2ccccn2)c2c(C)c(C)c(=O)oc2c1 | 5.62 µM [rising, partial curve, poor fit] | –
8 | O=C1NC(=O)/C(=C/c2cccc3ccccc23)S1 | 1.26 µM [rising, full curve, poor fit] | –
9 | CN1c2ccccc2C(O)=C(C(=S)Nc2ccccc2)S1(=O)=O | 16.4 µM [falling, single point] | –
10 | N#CCc1nn(-c2ccccc2)c2ncnc(N)c12 | 3.98 µM [falling, partial curve] | –
11 | CC(=O)N1CCN(c2ccc(NC(=O)C(C)Oc3ccc(Cl)cc3Cl)cc2)CC1 (configuration not stated) | 32.6 µM [falling, single point] | –
12 | C=CCC[C@@H](Cc1ccc(F)cc1)C(=O)OC[C@@H](Cc1c[nH]c2ccccc12)NC(=O)[C@@H](CC=C)CC(=O)NCCO | 32.6 µM [falling, single point] | –
13 | O=C1CN(c2ccccc2)C(=S)N1C(=O)c1ccccc1 | 10 µM [falling, partial curve, poor fit] | –
14 | CN1C(=O)c2ccccc2Sc2ccc(NC(=O)COc3ccc(Cl)cc3)cc21 | 10 µM [falling, partial curve, poor fit] | –
15 | Cc1ccc2nc(-c3ccc(NC(=O)COC(=O)c4cncc(Br)c4)cc3)sc2c1 | 0.461 µM [rising, full curve, poor fit] | –
16 | CCCCC(=O)Nc1cccc(-c2cn3ccccc3n2)c1 | 8.91 µM [rising, partial curve, poor fit] | –
17 | COc1ccc(-c2cn3cccnc3n2)cc1Br | 10.3 µM [rising, single point] | –
18 | Cc1nn(-c2ccccc2)c2sc(C(=O)N3CCOCC3)cc12 | 18.4 µM [falling, partial curve, poor fit] | –
19 | O=C(CSC1CN(C(c2ccccc2)c2ccccc2)C1)N/N=C/c1ccc(Cl)cc1Cl | 0.794 µM [falling, full curve, poor fit] | –
20 | NC(=O)c1ccc(-c2nnc(Nc3ccc(S(N)(=O)=O)cc3)c3ccccc23)cc1 | 22.4 µM [falling, single point] | –
21 | O=S(=O)(CC(CN1CCCC1)N1CCCC1)c1ccc2ccccc2c1 (configuration not stated) | 0.206 µM [falling, full curve] | –
22 | COC(=O)c1cc(S(=O)(=O)N(C)c2ccc(C)c(C)c2)c[nH]1 | 3.55 µM [rising, partial curve] | –

As entered above.
AC50 [1] with N#CCc1nn(-c2ccccc2)c2ncnc(N)c12 reads 3.98 µM [falling, partial curve]
AC50 [1] with Cc1cc(OCC(=O)NCc2ccccn2)c2c(C)c(C)c(=O)oc2c1 reads 5.62 µM [rising, partial curve, poor fit]

Going on with the list.

Row | Structure (SMILES) | AC50 [1] | AC50 [2]
23 | O=C(Nc1cccnc1)c1cc2cc(Br)ccc2o1 | 11.2 µM [falling, partial curve] | –
24 | Cn1nc(C(=O)Nc2cccc(Cl)c2)cc1C(=O)Nc1cccc(Cl)c1 | 35.5 µM [rising, single point] | –
25 | CC(=O)N(C1=C(N2CCOCC2)C(=O)c2ccccc2C1=O)c1ccc(C(=O)O)cc1 | 35.5 µM [falling, single point] | –
26 | COc1ccc(NC(=O)c2cc(C)on2)cc1OC | 32.6 µM [falling, single point] | –
27 | O=C(NCCc1ccccc1)Oc1ccc(Cl)cc1 | 11.2 µM [falling, partial curve, poor fit] | –
28 | c1ccc(OCCOCCN2CCN(C(c3ccccc3)c3ccccc3)CC2)cc1 | 23.1 µM [falling, single point] | –
29 | S=C(NCC1CCCO1)N1CCN(c2ccccc2)CC1 (configuration not stated) | 35.5 µM [rising, single point] | –
30 | NC(=O)C1(N2CCCCC2)CCN(c2nc(-c3ccccc3)cs2)CC1 | 32.6 µM [rising, partial curve, poor fit] | –
31 | CC1(C)C2CCC(C2)C1(C)N=C1OC(CCl)CS1 (configuration not stated) | 0.794 µM [rising, full curve, poor fit] | –
32 | COc1ccc(C(=O)c2c(O)cc(-c3ccc(OC)cc3)oc2=O)cc1 | 9.2 µM [falling, partial curve, poor fit] | –
33 | Cc1ccccc1N1CCN(C(=O)CN2C(=O)c3ccccc3C2=O)CC1 | 0.146 µM [rising, full curve, poor fit] | –
34 | CCOC(=O)c1cc(-c2ccc(OC)cc2)nc2c1c(C)nn2CCC(N)=S | 28.2 µM [falling, single point] | –
35 | COc1ccccc1C(=O)C1CCCN(C(=O)c2ccc3c(c2)OCCO3)C1 (configuration not stated) | 35.5 µM [falling, single point] | 11.2 µM [rising, partial curve, poor fit]
36 | COc1ccc(C)c2sc(=NC(=O)c3cccc(N4C(=O)CCC4=O)c3)n(C)c12 | 7.94 µM [falling, partial curve] | –
37 | COC(=O)CCCC1=CC2=C(c3ccccc3)C(=O)C(C)(OC(=O)C3CCCC3)C(=O)C2=CN1c1ccccc1 (configuration not stated) | 12.6 µM [rising, partial curve] | –
38 | OCCC1CCCCN1CC(O)COCc1ccc(Cl)cc1 (configuration not stated) | 12.6 µM [rising, partial curve, poor fit] | –
39 | CC(C)[C@H](NC(=O)c1ccccc1F)C(=O)OCC(=O)NC1CC1 | 0.517 µM [rising, full curve, poor fit] | –
40 | CCOC(=O)C1CCN(C(C)=C2C(=O)c3ccccc3C2=O)CC1 | 29.1 µM [rising, single point] | –
41 | Cc1cc([N+](=O)[O-])ccc1N | 29.1 µM [rising, single point] | –
42 | Cn1c2c(c(=O)n(C)c1=O)NC1(N2)C(=O)Nc2ccccc21 (configuration not stated) | 2.82 µM [falling, full curve, poor fit] | –
43 | Cc1cc(/C=C(\C#N)C(=O)O)c(C)n1-c1ccc(Br)cc1 | 5.01 µM [rising, full curve, poor fit] | –
44 | O=C(NNC(=O)c1ccc(Br)s1)c1csc(N2CCOCC2)n1 | 25.9 µM [falling, single point] | –

Row | Structure (SMILES) | AC50 [1] | AC50 [2]
45 | CCN1C(=O)C(CC(=O)Nc2ccc(OC)cc2)N(CCc2ccc(F)cc2)C1=S (configuration not stated) | 14.1 µM [falling, single point] | –
46 | Cc1cc(Cl)ccc1OCCNC(=S)NC(=O)c1cccnc1 | 14.1 µM [rising, single point] | –
47 | O=C(CSc1ccc2ccccc2c1)N1CCN(c2ccc(O)cc2)CC1 | 0.708 µM [rising, full curve, poor fit] | –
48 | Cn1cccc1C(=O)NNC(=O)COc1ccc(C#N)cc1 | 23.1 µM [rising, single point] | –
49 | Cc1cc(C)cc(NC(=O)NC(C)C2CCCO2)c1 (configuration not stated) | 6.31 µM [rising, single point] | –
50 | COc1ccc(C(=O)c2ccc(Cl)cc2)cc1 | 29.1 µM [falling, single point] | –
51 | Nc1ccc(CSc2ccc(Cl)cc2)cc1 | 7.94 µM [falling, partial curve] | –
52 | O=C(Oc1coc(CSc2nnc(NC(=O)C3CC3)s2)cc1=O)c1ccccc1 | 0.517 µM [rising, full curve, poor fit] | –
53 | CC1=NN(Cc2ccccc2)C(=O)/C1=C/c1ccc(N(C)C)cc1 | 6.31 µM [rising, single point] | 3.16 µM [falling, single point]
54 | O=C(COc1ccc(F)cc1F)Nc1cccnc1 | 6.31 µM [rising, single point] | –
55 | O=C(/C=C/c1ccc(Cl)cc1)Nn1c(-c2cccs2)nc2ccccc2c1=O | 0.651 µM [falling, partial curve, poor fit] | –
56 | CCOC(=O)Cc1csc(NC(=O)CSc2nnc(-c3ccc(C)cc3)o2)n1 | 11.2 µM [rising, partial curve, poor fit] | –
57 | Cc1cc(C)cc(NC(=O)C2(c3ccccc3)CC2(Cl)Cl)c1 (configuration not stated) | 6.31 µM [rising, full curve] | –
58 | CCCSc1nnc(-c2c[nH]c3ccccc23)n1CC | 0.731 µM [rising, full curve, poor fit] | –
59 | CC(C)=CCN1CCN(CCCc2ccccc2)CC1CCO (configuration not stated) | 35.5 µM [rising, single point] | –
60 | COc1ccccc1/C=C/C(=O)Oc1cccc2cccnc12 | – | 35.5 µM [falling, single point]
61 | CCOc1ccccc1NC(=O)CSc1nncc2ccccc12 | 11.2 µM [falling, partial curve] | –
62 | Cc1ccc(-c2csc(NC(=O)CSc3nc(C)cs3)n2)cc1 | 2.59 µM [falling, full curve, poor fit] | –
63 | C=CCn1c(CSCc2ccccc2)nnc1SCC(=O)NCc1ccccc1 | 8.91 µM [falling, partial curve, poor fit] | –
64 | CCCCN1CC(=O)N2[C@H]3c4cc(Br)ccc4OC[C@@H]3[C@H](C(=O)OCC)[C@]2(C)C1=O | 29.1 µM [falling, single point] | 20.6 µM [rising, partial curve, poor fit]

Reference: PubChem BioAssay AID493014 (National Center for Advancing Translational Sciences (NCATS), 2011)
